Data as given in PubChem BioAssay AID1224830 (NIAID, 2016)
Here is one part, drawn at random, of about 18,000 reagents tested. Over the whole deposit, about 2,900 (16%) were called active. 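Calls are made per well; low scores hint the gene aids the LPS response, high scores that it dampens it.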 Repeated entries: four replicate wells of each siRNA pool.

Purpose: 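Genes whose knock-down alters the TNF-alpha reporter response to LPS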 (primary screen)
Cells: human THP-1 monocytic leukaemia cells, TNF dual-luciferase reporter clone, PMA-differentiated to macrophage-like cells
Reagents: siRNA pool against human genes, 50 nM
Time to read-out: LPS for 4 h, given about 3 days after siRNA transfection
Treatment: bacterial LPS (TLR4 ligand), 10 ng/ml
Measurement: 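TNF firefly reporter luminescence divided by renilla, normalised to the plate median, then turned into a robust z-score for each replicate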
Reading the numbers: TNF reporter robust z-score: higher = stronger TNF reporter response to LPS
Active means: 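a well is active when its z-score exceeds 2.8 or falls below -1.5; control wells carry no call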

Gene	TNF reporter robust z-score	call
ZFP64	-1.44	inactive
ZFP64	-1.18	inactive
ZFP64	-1.1	inactive
ZFP64	-1.16	inactive
SOS1	-0.16	inactive
SOS1	-0.01	inactive
SOS1	-0.4	inactive
SOS1	0.26	inactive
RYBP	1.56	inactive
RYBP	2.52	inactive
RYBP	0.67	inactive
RYBP	0.63	inactive
TMED9	-0.35	inactive
TMED9	0.13	inactive
TMED9	-0.42	inactive
TMED9	-0.46	inactive
KRTAP10-7	-0.47	inactive
KRTAP10-7	0.54	inactive
KRTAP10-7	1.37	inactive
KRTAP10-7	-1.15	inactive
NSG2	0.57	inactive
NSG2	-1.05	inactive
NSG2	1.68	inactive
NSG2	0.89	inactive
SLC24A3	-1.63	active
SLC24A3	-1.29	inactive
SLC24A3	-1.78	active
SLC24A3	-1.33	inactive

Continued, starting with the last 3 of the part before.
Gene	TNF reporter robust z-score	call
SLC24A3	-1.29	inactive
SLC24A3	-1.78	active
SLC24A3	-1.33	inactive
TGFBR2	1.03	inactive
TGFBR2	1.88	inactive
TGFBR2	0.76	inactive
TGFBR2	-0.65	inactive
OR5AR1	1.11	inactive
OR5AR1	0.98	inactive
OR5AR1	1.91	inactive
OR5AR1	-0.02	inactive
STT3A	0.18	inactive
STT3A	0.57	inactive
STT3A	0.44	inactive
STT3A	0.74	inactive
NAALADL2	0.73	inactive
NAALADL2	2.98	active
NAALADL2	3.14	active
NAALADL2	0.02	inactive
DIO1	-0.51	inactive
DIO1	-0.95	inactive
DIO1	-0.66	inactive
DIO1	-0.19	inactive
